Results reported in article PMC4870705, “Topical Delivery of Protein and Peptide Using Novel Cell Penetrating Peptide IMT-P8” (Scientific Reports, 2016).

Test system: HeLa cells
Assay: Confocal laser scanning microscopy, intracellular localization in live cells
Conditions: FITC-labeled peptide 2.5 μM with MitoTracker Red CMXRos 100 nM, 30 min, 37 °C, serum-free medium

## RRWRRWNRFNRRRCR [IMT-P8]
  Co-localization with MitoTracker (mitochondria-specific dye): did not show any co-localization with Mitotracker dye

## KLAKLAKKLAKLAKRRWRRWNRFNRRRCR [IMT-P8-KLA]
  Co-localization with MitoTracker (mitochondria-specific dye): co-localization with MitoTracker
